Values joined by “and” are separate entries in the source; they are usually repeats but may differ in a detail not shown here. Equal entries are not always repeated. The list shows a part of the results. Shown are side measurements of this screen, not its main read-out; they come without a call. The list favours compounds with an active or inconclusive main result. Potencies come from curve fits of mixed quality, noted in brackets.
Experiment: qHTS Assay for Modulators of Lamin A Splicing
Details: HeLa LMNA splicing GFP/RFP minigene ratio, 48 h
Summary of the method: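 Read-out is the ratio of GFP to DsRed2 object intensity, acquired by 488 nm laser-scanning cytometry on HeLa lamin A-EGFP minigene reporter cells. Compound incubation 48 hrs at 37 °C in Opti-MEM with 2% FBS; DMSO 0.5% final.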

[1] = measured here: RFP viability control channel
[2] = measured here: GFP splicing reporter channel

Row | SMILES | AC50 [1] | AC50 [2]
1 | OCCC1CN(Cc2cnc(-c3ccc(Cl)cc3)nc2)CCN1C1CCCCC1 (stereo unspecified) | 0.891 µM [falling, full curve, poor fit] | 
2 | CC(C)C(=O)N1CCN(c2nc(-c3ccccc3)c3c(c2C#N)CCCC3)CC1 |  | 11.2 µM [rising, partial curve]
3 | Cc1cc(N2CCCC(C(=O)Nc3ccc4c(c3)CCC4)C2)n2ncnc2n1 (stereo unspecified) |  | 6.31 µM [rising, full curve, poor fit]
4 | CCN1C(=O)c2ccccc2Sc2ccc(NC(C)=O)cc21 |  | 17.8 µM [falling, partial curve, poor fit]
5 | COc1cc(C(=O)Nc2cc(C)ccc2OCc2cc(=O)n3c(C)csc3n2)cc(OC)c1OC |  | 0.447 µM [rising, partial curve, poor fit]
6 | CSCCC(=O)N1CCCC(CNC(=O)c2ccc(-c3ccccc3)cc2)C1 (stereo unspecified) |  | 35.5 µM [falling, single point]
7 | Fc1ccc(N/N=C/c2cccnc2)c(F)c1 | 11.2 µM [rising, partial curve] | 1.26 µM [rising, full curve, poor fit]
8 | CCOC(=O)N1CCC(=NNC(=O)c2ccc(O)cc2)CC1 | 20 µM [rising, partial curve] | 
9 | CCOc1ccc(-n2c(SCc3ccc(C(=O)OC)o3)nc3c([nH]c4ccccc43)c2=O)cc1 | 11.2 µM [falling, single point] | 7.94 µM [falling, partial curve]
10 | O=C(Nc1ccc(-c2cn3ccsc3n2)cc1)C1COc2ccccc2O1 (stereo unspecified) | 35.5 µM [rising, single point] | 22.4 µM [rising, partial curve, poor fit]
11 | O=C(C1CC1)N1CCN(S(=O)(=O)c2ccc3c(c2)OCCO3)CC1 | 22.4 µM [falling, partial curve, poor fit] | 35.5 µM [falling, partial curve]
12 | COc1ccc(NC(=O)OCCN2CCN(Cc3ccccc3)CCC2=O)cc1 | 3.98 µM [rising, single point] | 
13 | O=C(C1CCCCC1)N1CC(=O)N2CCc3ccccc3[C@@H]2C1 | 0.2 µM [falling, single point] | 
14 | CCOc1cc(/C=C/C(=O)c2ccc(O)cc2)ccc1OCC(=O)N(C)C | 11.2 µM [rising, partial curve, poor fit] | 
15 | Oc1ccc(Cn2cc[nH]c2=S)cc1 | 0.000794 µM [falling, full curve, poor fit] | 
16 | Cc1cc(C(=O)C(C)OC(=O)C2=NNC(=O)CC2)c(C)n1-c1ccc(OC(F)F)cc1 (stereo unspecified) | 25.1 µM [rising, single point] | 
17 | Cc1c(NC(=O)Cc2ccccc2)cccc1C(=O)NN1C(=O)c2ccccc2C1=O | 0.0562 µM [rising, full curve, poor fit] | 
18 | O=C(Nc1ccn(Cc2cccc3ccccc23)n1)c1cccnc1 | 7.08 µM [rising, full curve, poor fit] | 
19 | O=C(CN1CCC(n2nnc3cc(F)ccc32)CC1)N1CCc2ccccc2C1 | 12.6 µM [rising, partial curve, poor fit] | 28.2 µM [rising, single point]

In the list so far, these have fluorine:
Row | SMILES | AC50 [1] | AC50 [2]
7 | Fc1ccc(N/N=C/c2cccnc2)c(F)c1 | 11.2 µM [rising, partial curve] | 1.26 µM [rising, full curve, poor fit]
16 | Cc1cc(C(=O)C(C)OC(=O)C2=NNC(=O)CC2)c(C)n1-c1ccc(OC(F)F)cc1 (stereo unspecified) | 25.1 µM [rising, single point] | 
19 | O=C(CN1CCC(n2nnc3cc(F)ccc32)CC1)N1CCc2ccccc2C1 | 12.6 µM [rising, partial curve, poor fit] | 28.2 µM [rising, single point]

Following part:

Row | SMILES | AC50 [1] | AC50 [2]
20 | COc1cc(NC(=O)CCn2c(-c3ccccc3)cc(C(C)=O)c2C)cc(OC)c1 |  | 0.708 µM [rising, full curve, poor fit]
21 | COc1ccccc1N1CCN(C(=O)c2oc3cc(C)c(C)cc3c2C)CC1 | 12.6 µM [rising, single point] | 
22 | COc1cccc(/C=N/Nc2cc(C)nc(-c3ccccc3O)n2)c1O | 3.16 µM [falling, partial curve] | 3.16 µM [falling, partial curve, poor fit]
23 | Cc1cc(C(=O)COC(=O)C2CC2)c(C)n1-c1ccc(F)cc1 |  | 3.16 µM [rising, full curve, poor fit]
24 | CC(C)C(NC(=O)C1CCCCC1)C(=O)Nc1ccc2c(c1)OCCO2 (stereo unspecified) |  | 3.98 µM [rising, partial curve, poor fit]
25 | Cc1nn(S(=O)(=O)N2CCOCC2)c(C)c1Br | 3.16 µM [falling, partial curve, poor fit] | 
26 | CCN(c1cccc(C)c1)S(=O)(=O)c1ccc2c3c(cccc13)C(=O)N2 | 6.31 µM [rising, partial curve, poor fit] | 
27 | O=C(COc1ccccc1)NCc1ccc2c(c1)CCN2C(=O)c1ccc(F)cc1 | 1.12 µM [rising, partial curve, poor fit] | 
28 | Oc1cc(-n2cccn2)c(O)cc1-n1cccn1 | 14.1 µM [falling, single point] | 7.94 µM [falling, single point]
29 | Cc1c2ccccc2nc2c(F)c(N(C)C)c(F)c(F)c12 | 12.6 µM [falling, single point] | 17.8 µM [falling, partial curve]
30 | CCOC(=O)c1cnc(-c2ccccc2)nc1N(C)C |  | 3.55 µM [falling, partial curve]
31 | Cc1ccc(NC(=O)c2cc(S(=O)(=O)NCCC3=CCCCC3)ccc2F)cc1F | 3.16 µM [falling, single point] and 8.91 µM [falling, partial curve, poor fit] | 35.5 µM [falling, single point] and 35.5 µM [falling, partial curve]
32 | N#Cc1ccc(Oc2nc(C#N)cc(-c3ccccc3)n2)cc1 | 11.2 µM [rising, partial curve] | 
33 | Cc1cc(C)c(COCc2cc(/C=N/O)c(C)cc2C)cc1/C=N/O | 14.1 µM [rising, single point] | 12.6 µM [rising, single point]
34 | Cc1ccc(N2CCN(c3ccc(C)cc3)C2c2ccncc2)cc1 | 31.6 µM [rising, single point] | 
35 | COC(=O)c1ccccc1NC(=O)CN1CCC(C(=O)c2ccc3c(c2)OCCO3)CC1 |  | 12.6 µM [rising, single point]
36 | Cc1nn(-c2ccccc2)c2sc(-c3nnc(SCC(=O)O)o3)cc12 | 35.5 µM [falling, single point] | 35.5 µM [falling, single point]
37 | Cc1cc(Nc2nc3ccccc3nc2Cl)n(-c2ccccc2C)n1 | 25.1 µM [rising, single point] | 22.4 µM [rising, single point]
38 | Cc1ccc(Cl)cc1N1CCN(C(=O)C2CCN(S(=O)(=O)c3c(C)nn(C)c3C)CC2)CC1 | 20 µM [rising, single point] | 

Row | SMILES | AC50 [1] | AC50 [2]
39 | CC(C)(C)C(=O)Nc1ccccc1C(=O)NCc1ccco1 | 12.6 µM [rising, single point] | 
40 | O=C(CCN1CCN(C(c2ccccc2)c2ccccc2)CC1)N/N=C/c1ccc(O)cc1O | 35.5 µM [rising, single point] | 
41 | Cc1cc(F)ccc1NC(=O)CCS(=O)(=O)c1ccc2c(c1)NC(=O)CO2 |  | 1.26 µM [rising, partial curve]
42 | COC(=O)c1cn(NC(=O)c2ccc([N+](=O)[O-])cc2Cl)c(=O)c2ccccc12 |  | 0.447 µM [falling, full curve, poor fit]
43 | COc1ccc(COc2ccccc2C(=O)NCc2ccccc2)cc1F | 28.2 µM [rising, single point] | 
44 | CN1CCN(c2ccnc(-c3ccoc3)n2)CC1 |  | 12.6 µM [falling, single point]
45 | COc1cc(NS(=O)(=O)c2ccc(C)cc2)ccc1-n1cnnn1 | 11.2 µM [rising, single point] | 14.1 µM [rising, partial curve]
46 | COc1cccc(CNC(=O)C2CCCN(S(=O)(=O)c3ccc4c(ccn4C)c3)C2)c1 (stereo unspecified) |  | 0.0891 µM [falling, full curve, poor fit]
47 | COCCOC(=O)C1=C(N)OC2=C(C(=O)CCC2)C1c1cccnc1 (stereo unspecified) |  | 0.02 µM [rising, full curve, poor fit]
48 | O=C(Nc1ccc(F)cc1)c1ccc(COc2ccccc2)cc1 | 0.0631 µM [rising, full curve] | 
49 | C=C1c2c(Cl)ccc(O)c2C(O)=C2C(=O)[C@@]3(O)C(O)=C(C(N)=O)C(=O)[C@@H](N(C)C)[C@@H]3[C@@H](O)[C@H]12 | 0.00447 µM [rising, full curve, poor fit] | 
50 | Nc1ccn([C@@H]2O[C@H](CO)[C@@H](O)C2O)c(=O)n1 (stereo partly specified) |  | 0.891 µM [falling, full curve, poor fit]
51 | Cc1cc(C)c(NC(=S)NC(=O)c2c(Cl)c(C)nn2C)c([N+](=O)[O-])c1 | 31.6 µM [rising, single point] | 25.1 µM [rising, single point]
52 | Cc1noc(C)c1CSc1nnc2ccccn12 | 35.5 µM [rising, single point] | 
53 | COc1ccc(N2CCN(C(c3cc4cc(C)ccc4[nH]c3=O)c3nnnn3Cc3ccccc3)CC2)cc1 (stereo unspecified) |  | 12.6 µM [rising, partial curve, poor fit]
54 | O=c1cnc2cnc(Nc3ccccc3)nc2n1Cc1ccc(F)cc1 | 20 µM [falling, partial curve, poor fit] | 
55 | Cc1ccc2nc(NC(=S)NC(=O)c3ccc(OC(C)C)cc3)sc2c1 | 35.5 µM [falling, single point] | 
56 | COc1ccc(N2CCN(C(=O)CCc3ccc(S(=O)(=O)NC(C)C)cc3)CC2)cc1 | 22.4 µM [rising, single point] | 22.4 µM [rising, single point]
